Source: US20150023883A1, “Antiperspirant Spray Devices and Compositions” (The Procter & Gamble Company, priority 2013, published 2015)
At least one read-out could not be matched to a standard name with certainty.

Experiment: Hansen Solubility Parameter for Hydrogen Bonding
Assay type: physicochemical

| SMILES | Hansen Solubility Parameter for Hydrogen Bonding, δh |
| --- | --- |
| CCCCCCCCCCCCCC(C)C [isohexadecane] | about 0.21 MPa^1/2 |
| CCCCCCCCCCCCCCCC(=O)OC(C)C [isopropyl palmitate] | about 3.15 MPa^1/2 |
